No constants are given. Whether binding was seen depends on the method and setting. Some entries that bind do so weakly or less than the wild type. Tags and fused reporters may be left off the sequences shown.
T1: Nog1-TAP (LSU biogenesis factor Nog1 chromosomally encoded in fusion with a tandem affinity purification tag) (S. cerevisiae) (UniProt Q02892)
T1 sequence: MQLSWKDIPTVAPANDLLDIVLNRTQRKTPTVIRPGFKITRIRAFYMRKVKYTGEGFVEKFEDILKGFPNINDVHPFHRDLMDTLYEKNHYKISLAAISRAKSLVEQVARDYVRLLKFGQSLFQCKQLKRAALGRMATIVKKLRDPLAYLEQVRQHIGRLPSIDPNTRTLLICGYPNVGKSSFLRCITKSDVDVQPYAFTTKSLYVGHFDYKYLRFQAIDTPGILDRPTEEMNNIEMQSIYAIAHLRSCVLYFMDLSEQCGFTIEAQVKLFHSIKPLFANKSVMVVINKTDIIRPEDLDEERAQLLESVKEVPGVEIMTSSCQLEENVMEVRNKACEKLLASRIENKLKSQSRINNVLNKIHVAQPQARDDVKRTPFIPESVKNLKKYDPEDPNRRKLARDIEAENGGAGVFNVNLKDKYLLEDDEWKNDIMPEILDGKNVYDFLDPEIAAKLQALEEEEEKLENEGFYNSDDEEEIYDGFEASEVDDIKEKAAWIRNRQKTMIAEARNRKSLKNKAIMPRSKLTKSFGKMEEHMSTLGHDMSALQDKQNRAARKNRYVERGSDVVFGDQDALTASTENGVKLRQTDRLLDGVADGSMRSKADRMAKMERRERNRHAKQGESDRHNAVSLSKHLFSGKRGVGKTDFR

B1: Mak16 (protein, UniProt P10962 1-306)
chain: MSDEIVWQVINQSFCSHRIKAPNGQNFCRNEYNVTGLCTRQSCPLANSKYATVKCDNGKLYLYMKTPERAHTPAKLWERIKLSKNYTKALQQIDEHLLHWSKFFRHKCKQRFTKLTQVMITERRLALREEERHYVGVAPKVKRREQNRERKALVAAKIEKAIEKELMDRLKSGAYGDKPLNVDEKVWKKIMGQMEEENSQDEEEDWDEEEESDDGEVEYVADDGEGEYVDVDDLEKWLADSDREASSASESESDSESESDSDSDEENKNSAKRRKKGTSAKTKRPKVEIEYEEEHEVQNAEQEVAQ
B2: Rpf1 (protein, UniProt P38805 1-295)
chain: MALGNEINITNKLKRQEIFADIKHEKNKERHTMRRKRAKEERENPELREQRLKENVTQTIENTRVYDETINKEVEGDEDDLMRYFNSNSNEPPKIFLTTNVNAKKSAYEFANILIEILPNVTFVKRKFGYKLKEISDICIKRNFTDIVIINEDKKKVTGLTFIHLPEGPTFYFKLSSFVEVKKIVGHGRPTSHIPELILNNFQTRLGQTVGRLFQSILPQNPDIEGRQVITLHNQRDYIFFRRHRYVFKDNERVGLQELGPQFTLKLKRLQRGIKEETEWEHKPEMDKEKKKFYL
B3: Ytm1 (protein, UniProt Q12024 1-460)
chain: MTEDKSQVKIRFFTREKDELLHVQDTPMYAPISLKRYGLSEIVNHLLGSEKPVPFDFLIEGELLRTSLHDYLTKKGLSSEASLNVEYTRAILPPSYLNSFSNEDWVSSLDVGDGSKHIISGSYDGIVRTWDLSGNVQKQYSGHSGPIRAVKYISNTRLVSAGNDRTLRLWKTKNDDLKLTSQQQAQEDDDDEVNIEDGKTLAILEGHKAPVVSIDVSDNSRILSASYDNSIGFWSTIYKEMTVVDPLEDINNPNNKISTAARKRRKLTMKDGTIRRRAPLSLLESHTAPVEQVIFDSTDNTVGYSVSQDHTIKTWDLVTARCIDTRTTSYSLLSIAQLSTLNLLACGSSARHITLHDPRVGASSKVTQQQLIGHKNFVSSLDTCPENEYILCSGSHDGTVKVWDVRSTSPMYTITREDKSVQKGVNDKVFAVKWAEKVGIISAGQDKKIQINKGDNIFKN
B4: Ebp2 (protein, UniProt P36049 1-427)
chain: MAKGFKLKELLSHQKEIEKAEKLENDLKKKKSQELKKEEPTIVTASNLKKLEKKEKKADVKKEVAADTEEYQSQALSKKEKRKLKKELKKMQEQDATEAQKHMSGDEDESGDDREEEEEEEEEEEGRLDLEKLAKSDSESEDDSESENDSEEDEDVVAKEESEEKEEQEEEQDVPLSDVEFDSDADVVPHHKLTVNNTKAMKHALERVQLPWKKHSFQEHQSVTSETNTDEHIKDIYDDTERELAFYKQSLDAVLVARDELKRLKVPFKRPLDYFAEMVKSDEHMDKIKGKLIEEASDKKAREEARRQRQLKKFGKQVQNATLQKRQLEKRETLEKIKSLKNKRKHNEIDHSEFNVGVEEEVEGKRFDRGRPNGKRAAKNAKYGQGGMKRFKRKNDATSSADVSGFSSRKMKGKTNRPGKSRRARRF
B5: Cic1 (protein, UniProt P38779 1-376)
chain: MAKKSNSKKSTPVSTPSKEKKKVIEKKSSTAIPRERVIKAVNELIKFTSKPQDENNEEGNNGKKNLLEDDEEELKKDLQLIVVNNKSFTGTSKSFKLKLLNVKHSFYKPWKEASATAVKDFKVLLILKDSDIKKVSEDDLFDQLDSEGIKVDEIICGKDLKTVYKAYEARNAFISQFSLILADDSIVTSLPKLMGGKAYNKVETTPISIRTHANKEFSLTTLTNNIKKVYMNQLPVKLPRGTTLNVHLGNLEWLRPEEFVDNVELISEQLIKAYQIRSIFIKTNRSPVLPLYYNQDVLDELEAKKDKIEETHEDDMVTIDGVQVHLSTFNKGLMEIANPSELGSIFSKQINNAKKRSSSELEKESSESEAVKKAKS
B6: rpL5 (protein, UniProt P26321 1-297)
chain: MAFQKDAKSSAYSSRFQTPFRRRREGKTDYYQRKRLVTQHKAKYNTPKYRLVVRFTNKDIICQIISSTITGDVVLAAAYSHELPRYGITHGLTNWAAAYATGLLIARRTLQKLGLDETYKGVEEVEGEYELTEAVEDGPRPFKVFLDIGLQRTTTGARVFGALKGASDGGLYVPHSENRFPGWDFETEEIDPELLRSYIFGGHVSQYMEELADDDEERFSELFKGYLADDIDADSLEDIYTSAHEAIRADPAFKPTEKKFTKEQYAAESKKYRQTKLSKEERAARVAAKIAALAGQQ
B7: Brx1 (protein, UniProt Q08235 1-291)
chain: MSSIYKALAGKSKDNKSEKKQGNVKQFMNKQRTLLISSRGVNYRHRHLIQDLSGLLPHSRKEPKLDTKKDLQQLNEIAELYNCNNVLFFEARKHQDLYLWLSKPPNGPTIKFYIQNLHTMDELNFTGNCLKGSRPVLSFDQRFESSPHYQLIKELLVHNFGVPPNARKSKPFIDHVMSFSIVDDKIWVRTYEISHSTKNKEEYEDGEEDISLVEIGPRFVMTVILILEGSFGGPKIYENKQYVSPNVVRAQIKQQAAEEAKSRAEAAVERKIKRRENVLAADPLSNDALFK
B8: Cgr1 (protein, UniProt P53188 1-120)
chain: MVNETGESQKAAKGTPVSGKVWKAEKTPLRAKSRVVKNKKLTSWELKKQKRLEDKQFKERLKALKDEKEEARQAKITMLKERREKKEENERYERLAAKMHAKKVERMRRREKRNKALKER
B9: Rlp7 (protein, UniProt P40693 1-322)
chain: MSSTQDSKAQTLNSNPEILLRKRRNADRTRIERQELAKKKREEQIKKKRSNKNKFVRAESIVAKTLATSREKERIKRVSILEDKKAKNETQHIASGKDFILKITEKANGAEENSVDLEETEEEEDDGLIREKTTYDGKPALLFIVRVRGPLAVNIPNKAFKILSLLRLVETNTGVFVKLTKNVYPLLKVIAPYVVIGKPSLSSIRSLIQKRGRIIYKGENEAEPHEIVLNDNNIVEEQLGDHGIICVEDIIHEIATMGESFSVCNFFLQPFKLNREVSGFGSLNRLRKIKQREAESRTRQFSNAATAPVIEVDIDSLLAKLN
B10: Rrp1 (protein, UniProt P35178 1-278)
chain: METSNFVKQLSSNNRKTRVNALEALKKYLTAKQFKENKQIEFNKLWKGLYYAMWFSDRPRPQQRLANELGELHGLYFDPKDNSTADELTTNDKAFIKFSRGFWKVMCFEWFNIDRYRLDKYLLLIRRVLFSQLKYLQSRNWDKKLVDEYIKKVLRWLPLSGSPKVYTGIPIHIVDILLDEWERLLKDGDEDDEDEENKEEEMRKIAESAKKTPLADVIAIFQDIVADYNNSKVLREKIKEDLFSDTRLVSWDILEGETQHNDSSNESEEEEEEEWKGF
B11: Nsa1 (protein, UniProt P53136 1-463)
chain: MRLLVSCVDSGSIKEVLCNIGTDTSVQSALQPFHVAPHLAEGLKAYVDRMWVISEDEAILARNSGVVELVKISKHLKENEALQVDPKGESKNEKSLSDDLPKFDISEFEITSSVSDLFDDAKLESLSSKSVKRTKLVDGFVTLCPIKKDSSNNTFVAATKSGLLHIIKKGEDKKLIKLASLGLKAPVEFLQLYDLEDTDTDKYIFAYGGEENLIKLVEIDSSFQSLKQIWEAKNVKNDRLDMRVPVWPMALRFLEPSPGKTEKGKLNYQFAAITRWSHLTKYSTQHGRKPFAQIDLLPNREPLSQMEVFDAKGENVVSSLGNFQSETFNELNVITTDYKKNVFKFDGNGRMLGKVGRDDITGSSTYIHVHDGKYLLQGGLDRYVRIFDIKTNKMLVKVYVGSRINFIVMLDDVEIEMPLSPSAKAAKGKQKRKVTELEEDADELWNKLEGKVAASKASKKSKI
B12: Erb1 (protein, UniProt Q04660 1-807)
chain: MMAKNNKTTEAKMSKKRAASEESDVEEDEDKLLSVDGLIDAEASESDEDDDEYESAVEEKESSSDKEAQDDSDDDSDAELNKLLAEEEGDGEEDYDSSEFSDDTTSLTDRLSGVKLQTIVDPNIYSKYADGSDRIIKPEINPVYDSDDSDAETQNTIGNIPLSAYDEMPHIGYDINGKRIMRPAKGSALDQLLDSIELPEGWTGLLDKNSGSSLNLTKEELELISKIQRNEQTDDSINPYEPLIDWFTRHEEVMPLTAVPEPKRRFVPSKNEAKRVMKIVRAIREGRIIPPKKLKEMKEKEKIENYQYDLWGDSTETNDHVMHLRAPKLPPPTNEESYNPPEEYLLSPEEKEAWENTEYSERERNFIPQKYSALRKVPGYGESIRERFERSLDLYLAPRVRKNKLNIDPNSLIPELPSPKDLRPFPIRCSTIYAGHKGKVRTLSIDPSGLWLATGSDDGTVRVWEILTGREVYRTTLIDDEENPDYHIECIEWNPDANNGILAVAVGENIHLIVPPIFGYDIENNGKTKIEDGFGYDTFGTVKKSNLEVNENGDGDEDGENESAKNAVKKQVAQWNKPSQKQLEKDICITISCKKTVKKLSWHRKGDYFVTVQPDSGNTSVLIHQVSKHLTQSPFKKSKGIIMDAKFHPFKPQLFVCSQRYVRIYDLSQQILVKKLLPGARWLSKIDIHPRGDNLIASSFDKRVLWHDLDLASTPYKTLRYHEKAVRSVNFHKKLPLFSSAADDGTIHVFHATVYDDMMKNPMIVPLKKLTGHKVINSLGVLDAIWHPREAWLFSAGADNTARLWTT

Biological target: T1, Nog1-TAP (LSU biogenesis factor Nog1 chromosomally encoded in fusion with a tandem affinity purification tag) (S. cerevisiae)
Experiment: cryo-EM structure; LSU precursor particles (with pre-rRNA) associated with TAP tagged Nog1, purified in one step on rabbit IgG magnetic beads from yeast extract in buffer A200 (200 mM potassium chloride, 20 mM Tris pH8, 5 mM magnesium acetate), eluted with TEV protease; single particle cryo-EM, maps of sub-nanometre resolution, models by flexible fitting of published models; control strain Y1877 and strains with expression of rpL2, rpL25 or rpL34 shut down for 4 h in glucose

binding	Binder
binds	B1
binds	B2
binds	B3
binds	B4
binds	B5
binds	B6
binds	B7
binds	B8
binds	B9
binds	B10
binds	B11
binds	B12

Reference: PMC8610266
